# Data reported in PubChem BioAssay AID493014 (National Center for Advancing Translational Sciences (NCATS), 2011).
# Screen size: about 340,000 compounds; about 170 (0.05%) were called active. This list was built around the results that the source calls inconclusive (neither active nor inactive); the mix of calls is not that of the screen. Calls come from the whole dose curve; as a rule, active = well fitted inhibition curve with a large enough effect in the signal ratio, with a control signal flat (not every such curve was filed as active); inconclusive = small, poorly fitted or top-dose-only effect, or effect the other way, or a change in a side signal; inactive = flat fitted curve, though single readings scatter; the % refers to the signal ratio. Potencies of inconclusive entries are doubtful fits and often do not repeat.
# Experiment: qHTS Assay to Find Inhibitors of Chronic Active B-Cell Receptor Signaling;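 for activity change, negative = inhibition: plate controls were basal doxycycline-induced cells for no effect and cells given 10 µM MG132 for full effect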
# Conditions: ABC-DLBCL IkBa-CBG/CBR reporter, luminescence ratio (green luciferase fused to IkBa over red control in TMD8 lymphoma cells), 4 h; activity change, negative = inhibition: at 46.1 µM (top of the series)
# How it was run: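 Doxycycline induced both beetle luciferases in TMD8 lymphoma cells; IKK-driven degradation limits the IkappaBalpha-fused green signal, while red luminescence normalises for cell number and nonspecific effects. Compounds tested up to 46 uM, 4 hrs.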
# Potency is the fitted concentration of half-maximal effect.
SMILES,"activity change, negative = inhibition",Potency
COc1ccccc1-n1c(SCC(=O)OC(C)C)nc2cccnc21,inconclusive: -7.22%,
Cc1cc(F)ccc1S(=O)(=O)Nc1c(C)n(C)n(-c2ccccc2)c1=O,inactive: -1.93%,
C=C(c1ccc(O)cc1)c1ccc(O)cc1,inactive: -8.17%,
Cc1ccc(NC(=O)Nc2ccc([N+](=O)[O-])cc2)nc1,inconclusive: 18.8%,
CCNC(=S)N/N=C/c1cc(Br)cc(Br)c1OC,inactive: -17.1%,
COc1ccccc1NC(=O)c1ccccc1NC(=O)c1cccs1,,"inconclusive: 35.5 µM [falling, single point]"
COC(=O)c1sccc1NC(=O)Nc1ccc(C(C)=O)cc1,,"inconclusive: 15.8 µM [falling, partial curve, poor fit]"
CCOC(=O)C1=CN(Cc2cccc(F)c2)S(=O)(=O)NC1c1ccc(Br)cc1F (stereo unspecified),inactive: -0.866%,
C/C(=N\NC(=O)CNc1cccc(C(F)(F)F)c1)c1ccc(Br)cc1,,"inconclusive: 1.84 µM [falling, partial curve, poor fit]"
CC1(C)C2CCC1(CS(=O)(=O)N1CCOCC1)C(=O)C2 (stereo unspecified),inactive: -7.88%,
CCOc1ccc2c(c1)OC(c1ccc(C)cc1)(C(F)(F)F)NC2=O (stereo unspecified),inconclusive: -15%,
COc1ccc(Nc2nc(C)cc(C)n2)cc1Cl,inconclusive: 7.78%,
CCOC(=O)/C(O)=C(\C#N)c1nc2ccccc2[nH]1,,"inconclusive: 35.5 µM [falling, single point]"
COc1cc(/C=C/C(=O)O)cc(S(=O)(=O)Nc2ccccc2C(=O)NCCc2ccccc2)c1OC,,"inconclusive: 15.8 µM [falling, partial curve, poor fit]"
O=C(COC(=O)c1ccccc1Cl)NCCC1=CCCCC1,inconclusive: 8.98%,
CCOCCCn1c(=S)[nH]c2cc(C(=O)NCCc3ccc(OC)c(OC)c3)ccc2c1=O,inconclusive: 6.92%,
COc1cccc(NC(=O)CSc2nc3scc(C)c3c(=O)[nH]2)c1,inconclusive: -7.04%,
O=C(N/N=C\c1c[nH]c2ccccc12)c1ccc(O)cc1,,"inconclusive: 17.8 µM [falling, partial curve]"
O=C(Nc1cccc(C(=O)N2CCOCC2)c1)c1ncn[nH]1,inconclusive: 1.17%,
CCn1c(C)c(C(C)=O)c(N2CCCCC2)nc1=S,inconclusive: 17.6%,
CN1CCN(S(=O)(=O)c2cccc(C(=O)Nc3cccc(S(N)(=O)=O)c3)c2)CC1,inconclusive: 0.0638%,

SMILES,"activity change, negative = inhibition",Potency
C[C@H](NC(=O)N1CCn2c1nc1ccccc12)C(=O)NCCc1ccccc1,inconclusive: -17.6%,
NNC(=O)c1cc2cc(Oc3ccccc3)ccc2[nH]1,inactive: 7.43%,
Cc1nn(C)cc1CNC(=O)c1cccc(Cl)c1,,"inconclusive: 29.1 µM [falling, single point]"
CN(CC(=O)O)S(=O)(=O)c1ccc(F)cc1,,"inconclusive: 6.51 µM [falling, single point]"
Cc1ccc(C(=O)NCC(=O)OCC(=O)Nc2ccccc2[N+](=O)[O-])cc1,inconclusive: 5%,
CC(=O)Nc1ccc(NC(=O)CSc2nc(C)nc3sc(C)c(C)c23)cc1,inconclusive: -13.3%,
N=C(N)SCc1cccc2ccccc12,,"inconclusive: 22.4 µM [falling, single point]"
Cc1ccc(C2CC2c2n[nH]c(=S)n2-c2ccc(Cl)cc2)cc1 (stereo unspecified),,"inconclusive: 5.17 µM [rising, partial curve, poor fit]"
COc1cc(-c2nc(-c3ccccc3)c(-c3ccc(F)cc3)[nH]2)cc2c1OCO2,inconclusive: -12.3%,
O=S(=O)(NCc1ccccn1)c1ccc(Cl)c(C(F)(F)F)c1,inconclusive: 1.42%,
O=C(O)COc1ccc(/C=N/NC(=O)c2cccc3ccccc23)cc1,inconclusive: -4.86%,
CCn1cnc2cc(NCc3ccc(N(C)C)cc3)ccc21,inconclusive: 17%,
Clc1cccc(/C(Cc2nc3ccccc3[nH]2)=N\Nc2ccccc2)c1,inconclusive: 24.5%,
O=C(O)C1CCCCC1C(=O)N1CCN(S(=O)(=O)c2ccc(F)cc2)CC1 (stereo unspecified),inconclusive: -2.52%,
CCN(CCn1cccn1)Cc1nc(-c2ccc(C(=O)OC)cc2)no1,,"inconclusive: 35.5 µM [falling, single point]"
COc1ccc(OC)c(/C=N/NC(=S)NCCc2ccccc2)c1,,"inconclusive: 12.6 µM [falling, partial curve]"
O=C(NC(=S)Nc1ccc(N2CCOCC2)c(Cl)c1)c1cncc(Br)c1,inactive: -7.47%,
CCC(C(=O)OCC(=O)Nc1cc(Cl)cc(Cl)c1)c1ccccc1 (stereo unspecified),inconclusive: 0.379%,
COc1ccccc1C(=O)N/C(=C\c1cn(S(=O)(=O)N(C)C)c2ccccc12)C(=O)NCCCN1CCOCC1,inconclusive: -5.85%,
COC(=O)c1ccc(C(=O)OC)c(NC(=S)N2CCC(C)CC2)c1,inconclusive: -1.46%,
Cc1cc(C)c2cc(C#N)c(NCCOC(=O)c3ccccc3C)nc2c1,inactive: 5.14%,

SMILES,"activity change, negative = inhibition",Potency
COc1ccc(NC(=O)CN(C)C(=O)c2c(-c3c(F)cccc3Cl)noc2C)cc1,inactive: 0.824%,
C/C(=C1/C(=O)N(c2ccc([N+](=O)[O-])cc2)N=C1c1ccccc1)N(C)C,inconclusive: 3.22%,
CCOc1ccccc1NC(=O)N1CCC(N2CCN(Cc3ccccc3)C(=O)C2=O)CC1,inconclusive: -20.6%,
Cc1cc(C)nc(NC(=O)CSc2nnnn2-c2ccccc2)n1,,"inconclusive: 5.8 µM [rising, partial curve, poor fit]"
Oc1c(C(Nc2ccccn2)c2ccccn2)ccc2cccnc12 (stereo unspecified),inactive: -2.61%,
CCOC(=O)COc1ccccc1/C=N\NC(=O)c1cc2c(ccc3ccccc32)o1,,"inconclusive: 7.08 µM [falling, partial curve]"
COc1ccc(CC2(CO)CCN(Cc3ccc(OC(F)(F)F)cc3)CC2)cc1,inactive: 2.14%,
COc1ccccc1N=Nc1[nH]c2ccc(C)cc2c1O,inconclusive: -1.04%,
CCCN1CCN(CCCNC(=O)c2ccc3c(Cl)c4c(nc3c2)CCCC4)CC1,inconclusive: -11.8%,
CCOc1ccc(NC(=O)Cn2c(=O)oc3ccccc32)cc1,inconclusive: -2.13%,
COc1ccc(-c2csc(Nc3ccccc3)n2)cc1,,"inconclusive: 20 µM [falling, single point]"
O=C(Nc1ccc2cn[nH]c2c1)c1c(Cl)cccc1Cl,,"inconclusive: 2.06 µM [falling, single point]"
CC(C)CC(=O)NC(=S)Nc1ccc(F)cc1F,inconclusive: -1.14%,
CC(=O)c1cccc(NC(=O)c2ccc(N(Cc3ccccc3C)S(C)(=O)=O)cc2)c1,inconclusive: -6.37%,
CCOc1ccc(C(=O)Nc2cc(-c3nc4ccccc4[nH]3)ccc2Cl)cc1[N+](=O)[O-],,"inconclusive: 2.59 µM [falling, full curve]"
CCCCCCCCSc1nnc2[nH]c(=O)cc(N)n12,inconclusive: -10.6%,
COC(=O)COc1c(Cl)cc(C(c2c(C)[nH][nH]c2=O)c2c(C)[nH][nH]c2=O)cc1OC,inconclusive: -7.8%,
CN(CCOc1ccccc1)S(=O)(=O)c1ccc2oc3ccccc3c2c1,inactive: 8.65%,
Cc1noc(C)c1CSCC(=O)N(CC(C)C)c1c(N)n(Cc2ccccc2)c(=O)[nH]c1=O,inconclusive: 6.18%,
Cc1noc(NS(=O)(=O)c2ccc(NC(=O)/C=C/c3ccc(C(C)C)cc3)cc2)c1C,inconclusive: -2.39%,
CC(C)c1ccc(OCC(=O)N2CCCCCC2)c(Br)c1,inconclusive: 4.11%,

SMILES,"activity change, negative = inhibition",Potency
O=C(NCCc1ccc(Cl)cc1)c1ccc2c(c1)N(Cc1ccccc1)C(=O)CS2,inconclusive: 21.5%,
Cc1c(C(=O)NC2CCCCC2)sc2ncnc(N3CCN(c4ccccc4)CC3)c12,,"inconclusive: 25.1 µM [falling, single point]"
O=C(CSc1oc(-c2ccco2)nc1S(=O)(=O)c1ccccc1)NCC1CCCO1 (stereo unspecified),inconclusive: 6.4%,
C(=N\Nc1nccc(-c2cccnc2)n1)/c1ccccc1,,"inconclusive: 10 µM [falling, partial curve]"
N#Cc1cnn(Cc2ccccc2)c1/N=C/N1CCOCC1,inconclusive: -26.1%,
Cc1nc(NC(=O)c2ccccc2)sc1C1(C)CC(c2c(Cl)cccc2Cl)=NO1 (stereo unspecified),inactive: -1.46%,
CN(C)C(=O)c1ccc(NC(=O)c2cc(-c3ccco3)nc3ccccc23)cc1,inactive: 3.79%,
Cc1ccc(NC(=O)CSC(N)=O)cc1Cl,inconclusive: -19.8%,
CCOC(=O)N1CCN(Cc2cc(Cl)c3cccnc3c2O)CC1,inconclusive: -111%,
CCCCc1ccc(NC(=O)c2ccc(NS(C)(=O)=O)cc2)cc1,,"inconclusive: 11.2 µM [falling, partial curve, poor fit]"
CCOC(=O)C1=C(COC(=O)Cc2c(F)cccc2Cl)NC(=O)NC1C (stereo unspecified),inconclusive: -2.56%,
Cc1sc2ncnc(N3CCC(C(=O)Nc4nc5ccc(Cl)cc5s4)CC3)c2c1C,,"inconclusive: 0.058 µM [falling, full curve, poor fit]"
COc1ccc2c(Cl)c(C(=O)NCc3ccco3)sc2c1,inconclusive: -10.5%,
c1ccc2ncc(-n3cnnn3)cc2c1,inconclusive: 7.85%,
COc1cccc(N=Nc2c(N)[nH]n3c(=O)c4c(nc23)CCCC4)c1,,"inconclusive: 5.62 µM [falling, partial curve]"
O=C(Nc1nnc(-c2ccc(F)cc2)o1)c1ccc(S(=O)(=O)N2CCOCC2)cc1,inactive: 6.04%,
CC(C)CN(CC(C)C)CC(O)COc1ccccc1Br (stereo unspecified),inactive: 4.33%,
O=C(Nc1cccc(-n2cnnn2)c1)c1ccccc1Br,,"inconclusive: 10 µM [falling, partial curve]"
